Data reported in article PMC6272242, “Topical Anti-inflammatory Activity of New Hybrid Molecules of Terpenes and Synthetic Drugs” (Molecules, 2015).

What was measured:
hepatocytes HepG2 = experiment: Cytotoxicity, MTT reduction assay, HepG2; format: cell-based; settings: Homo sapiens, confluent cultures, 24 h, read-out: IC50 ± SD, HepG2
Protocol: The human cell lines, MRC-5 normal lung fibroblasts (CCL-171), AGS gastric epithelial adenocarcinoma cells (CRL-1739) and HepG2 hepatocellular carcinoma cells (HB-8065) were obtained from the American Type Culture Collection (ATCC, Manasas, VA, USA). The cells were grown as monolayers in the following media: MRC-5 and HepG2 in MEM and AGS in Ham F-12. The MEM medium contained 2 mM L-glutamine, 1 mM sodium pyruvate and 1.5 g/L sodium bicarbonate. Ham F-12 was supplemented with 2 mM L-glutamine and 1.5 g/L sodium bicarbonate. Both media were supplemented with 10% heat inactivated fetal bovine serum, 100 IU/mL penicillin and 100 µg/mL streptomycin in a humidified incubator with 5% CO2 in air at 37 °C. For the experiments, cells were plated at a density of 25,000 cells/mL in 96-well plates. […] Compounds were first dissolved in DMSO and then in medium. The final concentration of DMSO in the test medium and controls was 1%. […] The cell viability for each compound was calculated comparing the cell viability of the untreated controls (100%) with the cell viability of the different concentrations of each compound. Each concentration was tested in quadruplicate together with the control and repeated three times in separate experiments. Cell viability was determined at the end of the incubation by means of the MTT reduction assay. […] Results are expressed as IC50 values (µM) ± S.D.

[1] = test system: mice ear edema induced by arachidonic acid; experiment: Topical anti-inflammatory effect, arachidonic acid (AA) induced ear edema in mice; format: in vivo; settings: 3.2 µmol/mouse, 1 h after AA, n = 8, read-out: % TAAA ± SEM (percent reduction of the ear edema, arachidonic acid)
Protocol: The inflammatory agent arachidonic acid (AA) and phorbol 12-myristate 13-acetate (TPA) were used to assess the anti-inflammatory effect/action mechanism of the starting compounds, new synthetic products and reference drugs. […] Adult male CF-1 mice (20–25 g), obtained from a stock maintained at the Chilean Public Health Institute, were used to assess the anti-inflammatory effect. All animals were housed in a climate- and light-controlled room with a 12 h light-dark cycle, fasted overnight before the day of the assays, with free access to water. The anti-inflammatory activity of each compound was evaluated in groups of 8 treated and 16 control mice. Due to ethical considerations, the number of animals was kept to a minimum and single dose experiments were carried out.
The pro-inflammatory agents TPA and AA, the reference drugs indomethacin and nimesulide were from Sigma. […] The percent topical anti-inflammatory activity (TA) was evaluated according to the following equation: (1) %TA=[ Wc−Ws/Wc]× 100 where Wc and Ws are the different median values of the weights of the right and the left ear sections of the control and the treated animals, respectively.
For the animal experiments all values are presented as median ± SEM. […] Results are expressed as IC50 values (µM) ± S.D.

COc1ccc2cc([C@H](C)C(=O)O)ccc2c1 [Compound 5, naproxen, reference compound]
IC50 (hepatocytes HepG2): > 1 mM | inhibition in vivo at 3.2 µmol/animal [1]: 1.8 ± 7.5%
